The list shows only some results of the screen, not a fair sample: it is rich in T/C values a quarter to a half above the control, in often repeated tests (any T/C) and in doses without a T/C. Other doses and runs of a compound stand elsewhere. T/C is the treated group as % of the vehicle group. Some doses have a count of surviving animals in place of a T/C: the source files T/C as zero there, which appears to mark a toxic dose or a test without result, not a measured value. Some doses without a T/C left all or most animals alive at the check, yet need not have been tolerated: survival well below the control is almost never listed, so the zero probably covers shortened survival too. Counts of survivors are from the toxicity check (mostly the fifth day) where no day follows; animals may have died later. Schedule codes are those of the source, read here as Q, the interval in days (D) or hours (H), X, the number of doses. Some entries hold several experiments; their values stand side by side, smallest first. Where survival is the endpoint, this PubChem deposit counts one and a half times the control or more as active, and values a quarter to a half above the control carry no call in these data; other NCI protocols may use other cut-offs.
Tested on: P388 leukemia ip, CD2F1 mice, survival T/C
Assay: NCI In Vivo Anticancer Drug Screen. Data for tumor model P388 Leukemia (intraperitoneal) in CD2F1 (CDF1) mice
Conditions: T/C endpoint: median survival time, higher T/C = longer survival
[1] = dose: 25.0 mg/kg/injection, schedule: Q01DX005 (ip), vehicle: saline with Tween-80
[2] = dose: 50.0 mg/kg/injection, schedule: Q01DX005 (ip), vehicle: saline with Tween-80
[3] = dose: 200.0 mg/kg/injection, schedule: Q01DX005 (ip), vehicle: saline with Tween-80
[4] = dose: 120.0 mg/kg/injection, schedule: Q01DX005 (ip), vehicle: saline with Tween-80
[5] = dose: 240.0 mg/kg/injection, schedule: Q01DX005 (ip), vehicle: saline with Tween-80
[6] = dose: 100.0 mg/kg/injection, schedule: Q01DX009 (ip), vehicle: Klucel (hydroxypropylcellulose) (HPC)
[7] = dose: 200.0 mg/kg/injection, schedule: Q01DX009 (ip), vehicle: Klucel (hydroxypropylcellulose) (HPC)
[8] = dose: 200.0 mg/kg/injection, schedule: Q01DX009 (ip), vehicle: saline

Nc1ccc2nc3ccc(N)cc3[n+](-c3ccccc3)c2c1
T/C (dose: 6.0 mg/kg/injection, schedule: Q01DX009 (ip), vehicle: saline with Tween-80): 136 % of control
T/C (dose: 12.5 mg/kg/injection, schedule: Q04DX003 (ip), vehicle: saline with Tween-80): 136 % of control
survivor count (dose: 25.0 mg/kg/injection, schedule: Q04DX003 (ip), vehicle: saline with Tween-80): 5 of 6
survivor count (dose: 27.0 mg/kg/injection, schedule: Q01DX009 (ip), vehicle: saline with Tween-80): 0 of 6
survivor count (dose: 40.0 mg/kg/injection, schedule: Q01DX009 (ip), vehicle: saline with Tween-80): 2 of 6
survivor count (dose: 50.0 mg/kg/injection, schedule: Q04DX003 (ip), vehicle: saline with Tween-80): 0 of 6
survivor count (dose: 75.0 mg/kg/injection, schedule: Q04DX003 (ip), vehicle: saline with Tween-80): 0 of 6
survivor count (dose: 100.0 mg/kg/injection, schedule: Q04DX003 (ip), vehicle: saline with Tween-80): 0 of 6

CC1CCN(C(=S)NNC(C)c2cc3ccccc3cn2)CC1 (configuration not stated)
T/C (dose: 12.5 mg/kg/injection, schedule: Q01DX005 (ip), vehicle: saline with Tween-80): 137 and 139 % of control
T/C [1]: 145 % of control
survivor count [1]: 6 of 6
survivor count [2]: 0 of 6
survivor count (dose: 100.0 mg/kg/injection, schedule: Q01DX005 (ip), vehicle: saline with Tween-80): 0 of 6
survivor count [3]: 0 of 6

COc1cc([C@@H]2c3cc4c(cc3[C@H](SC(=N)N)[C@H]3COC(=O)[C@H]23)OCO4)cc(OC)c1OC
survivor count (dose: 80.0 mg/kg/injection, schedule: Q01DX010 (ip), vehicle: carboxymethylcellulose (CMC)): 0 of 6
survivor count (dose: 160.0 mg/kg/injection, schedule: Q01DX010 (ip), vehicle: carboxymethylcellulose (CMC)): 0 of 6

COC(=O)C(=O)c1c(C(=O)OC)nc2nnc(N)n2c1-c1ccc(F)cc1
survivor count [4]: 6 of 6

CN1CCN(C#CC(=O)c2ccc(Cl)cc2)CC1
survivor count (dose: 30.0 mg/kg/injection, schedule: Q01DX005 (ip), vehicle: saline with Tween-80): 5 of 6
survivor count (dose: 60.0 mg/kg/injection, schedule: Q01DX005 (ip), vehicle: saline with Tween-80): 0 of 6
survivor count [4]: 0 of 6
survivor count [5]: 0 of 6

CCC(C)C1C(=O)O[B-](F)(F)/[N+]1=C\c1ccccc1 (configuration not stated)
survivor count (dose: 400.0 mg/kg/injection, schedule: Q04DX003 (ip), vehicle: Klucel (hydroxypropylcellulose) (HPC)): 0 of 6

CCOC(=O)C([NH-])C([NH-])C(=O)OCC.[Cl][Pt+2][Cl] (configuration not stated)
T/C (dose: 6.25 mg/kg/injection, schedule: Q04DX002 (ip), vehicle: saline with Tween-80): 131 % of control

Cc1cccc(C)c1Nc1nnc(-c2ccc(N(C)C)cc2)s1
survivor count [5]: 6 of 6

Brc1ccc(C2=CSC3=NCCN23)cc1
survivor count (dose: 50.0 mg/kg/injection, schedule: Q01DX009 (ip), vehicle: saline with Tween-80): 0 of 6
survivor count (dose: 100.0 mg/kg/injection, schedule: Q01DX009 (ip), vehicle: saline with Tween-80): 0 of 6
survivor count (dose: 200.0 mg/kg/injection, schedule: Q01DX009 (ip), vehicle: saline with Tween-80): 0 of 6

O=S(=O)(c1ccc(Cl)cc1)N(Cl)Cl
survivor count [6]: 0 of 6
survivor count [7]: 0 of 6

CCN(CC)CCOCCC1(C)Oc2ccc(Cl)cc2O1 (configuration not stated)
survivor count [8]: 1 of 6

CC(=O)NCCSSCCCCSSCCNC(C)=O
survivor count (dose: 200.0 mg/kg/injection, schedule: Q01DX005 (ip), vehicle: Klucel (hydroxypropylcellulose) (HPC)): 5 of 5

NC(Cc1ccccc1)=S=O
survivor count (dose: 400.0 mg/kg/injection, schedule: Q04DX002 (ip), vehicle: Klucel (hydroxypropylcellulose) (HPC)): 4 of 6

N=c1ncn(C2OC(CO)C(O)C2O)c2nc[nH]c12 (configuration not stated)
survivor count (dose: 25.0 mg/kg/injection, schedule: Q01DX009 (ip), vehicle: Klucel (hydroxypropylcellulose) (HPC)): 6 of 6
survivor count (dose: 50.0 mg/kg/injection, schedule: Q01DX009 (ip), vehicle: Klucel (hydroxypropylcellulose) (HPC)): 3 of 6 and 5 of 6
survivor count [6]: 0 of 6
survivor count [7]: 0 of 6
survivor count (dose: 400.0 mg/kg/injection, schedule: Q01DX009 (ip), vehicle: Klucel (hydroxypropylcellulose) (HPC)): 0 of 6

C/C=C(\CC)C(C#N)O[Si](C)(C)C (configuration not stated)
survivor count [5]: 0 of 6

O=C1c2cccc3cc([N+](=O)[O-])cc(c23)C(=O)N1CCCN(CCO)CCO
T/C [2]: 125 % of control
survivor count [3]: 2 of 6 and 4 of 6

CC1CCC2CC(C3CCCC[N-]3)[N-]C(N)C2C1.CC1CCC2CC(C3CCCC[N-]3)[N-]C(N)C2C1.O=[N+]([O-])O.[Cu+] (configuration not stated)
survivor count (dose: 50.0 mg/kg/injection, schedule: Q04DX002 (ip), vehicle: saline): 2 of 6
survivor count (dose: 100.0 mg/kg/injection, schedule: Q04DX002 (ip), vehicle: saline): 1 of 6
survivor count (dose: 200.0 mg/kg/injection, schedule: Q04DX002 (ip), vehicle: suspension in saline): 6 of 6
survivor count (dose: 400.0 mg/kg/injection, schedule: Q04DX002 (ip), vehicle: suspension in saline): 4 of 6

C(=C\c1cccs1)/c1ccnnc1
survivor count (dose: 50.0 mg/kg/injection, schedule: Q01DX009 (ip), vehicle: saline): 5 of 6
survivor count [8]: 2 of 6

CCCCC1CN1C(=N)OCC (configuration not stated)
survivor count (dose: 12.5 mg/kg/injection, schedule: Q01DX005 (ip), vehicle: saline): 6 of 6
survivor count (dose: 50.0 mg/kg/injection, schedule: Q01DX005 (ip), vehicle: saline): 6 of 6
survivor count (dose: 100.0 mg/kg/injection, schedule: Q01DX005 (ip), vehicle: saline): 3 of 6
survivor count [4]: 1 of 6
survivor count [5]: 0 of 6

C=C(Cl)C(O)CNCCCC (configuration not stated)
survivor count [3]: 3 of 5

— PubChem BioAssay AID330 (DTP/NCI, 2004)
